# Values of other authors as cited in publication PMC9583845, “Characterization of the chicken melanocortin 5 receptor and its potential role in regulating hepatic glucolipid metabolism” (Frontiers in Physiology, 2022).
# Details: endogenous, cited from earlier work; for concentration of plasma ACTH: 2022
# [1] = 4–6 days chicks, two-site sequential chemiluminescent immunometric assay, ref Gaston et al., 2017
substance,measurement,setting,value
H-SYSMEHFRWGKPVGRKRRPIKVYPNGVDEESAESYPMEF-OH [ACTH1-39],ACTH in the plasma,[1],about 10 pg/ml
same,ACTH in the plasma (molar),[1],~2.2 pmol/L
same,concentration of plasma ACTH,"hatched chicks, ref Okur et al.",about 12 pg/ml
same,concentration of plasma ACTH,"three-week-old male chicks, ref Liu et al.",7 to 18 pg/mL

# Where two headings read alike, the source gives them in different places.
